Test results: the supplement of paper PMC10849652
Some of the results follow.

The chains behind the UniProt entries cited, without tags or fusion partners. Where a name states a change or a piece, a line headed by the entry shows the natural chain unless it says otherwise.
UniProt O60583: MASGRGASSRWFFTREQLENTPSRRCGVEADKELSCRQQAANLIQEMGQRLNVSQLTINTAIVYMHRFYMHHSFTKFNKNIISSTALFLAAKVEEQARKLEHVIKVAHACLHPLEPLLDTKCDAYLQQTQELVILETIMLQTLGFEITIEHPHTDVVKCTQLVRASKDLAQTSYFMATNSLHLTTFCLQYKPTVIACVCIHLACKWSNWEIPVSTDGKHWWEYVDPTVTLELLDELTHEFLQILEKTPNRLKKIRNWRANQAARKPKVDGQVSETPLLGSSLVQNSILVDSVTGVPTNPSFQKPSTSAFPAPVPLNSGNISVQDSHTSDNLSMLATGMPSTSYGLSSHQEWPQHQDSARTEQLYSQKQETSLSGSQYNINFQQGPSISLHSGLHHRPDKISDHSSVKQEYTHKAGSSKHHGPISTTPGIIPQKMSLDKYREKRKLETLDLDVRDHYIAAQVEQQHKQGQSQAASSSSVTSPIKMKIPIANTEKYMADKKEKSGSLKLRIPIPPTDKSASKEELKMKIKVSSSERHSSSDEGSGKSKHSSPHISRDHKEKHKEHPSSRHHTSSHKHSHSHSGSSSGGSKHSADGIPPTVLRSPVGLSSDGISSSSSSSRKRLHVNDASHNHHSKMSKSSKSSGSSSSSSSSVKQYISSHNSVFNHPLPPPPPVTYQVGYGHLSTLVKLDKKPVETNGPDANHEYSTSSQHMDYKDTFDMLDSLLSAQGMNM
UniProt Q92526, whole entry, looked up: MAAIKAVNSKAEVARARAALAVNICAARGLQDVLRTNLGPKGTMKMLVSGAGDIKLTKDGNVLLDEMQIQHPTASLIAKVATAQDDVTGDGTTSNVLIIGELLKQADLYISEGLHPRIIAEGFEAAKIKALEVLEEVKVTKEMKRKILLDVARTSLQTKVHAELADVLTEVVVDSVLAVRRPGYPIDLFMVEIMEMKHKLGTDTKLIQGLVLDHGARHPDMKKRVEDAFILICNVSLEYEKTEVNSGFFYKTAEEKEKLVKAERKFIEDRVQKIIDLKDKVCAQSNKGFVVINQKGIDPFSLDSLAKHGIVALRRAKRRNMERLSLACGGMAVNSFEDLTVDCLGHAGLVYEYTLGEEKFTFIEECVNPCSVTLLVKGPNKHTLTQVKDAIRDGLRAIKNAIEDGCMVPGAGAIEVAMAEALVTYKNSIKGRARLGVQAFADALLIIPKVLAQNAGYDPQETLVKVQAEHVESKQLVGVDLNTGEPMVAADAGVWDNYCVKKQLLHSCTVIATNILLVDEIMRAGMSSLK
UniProt Q9UKL3: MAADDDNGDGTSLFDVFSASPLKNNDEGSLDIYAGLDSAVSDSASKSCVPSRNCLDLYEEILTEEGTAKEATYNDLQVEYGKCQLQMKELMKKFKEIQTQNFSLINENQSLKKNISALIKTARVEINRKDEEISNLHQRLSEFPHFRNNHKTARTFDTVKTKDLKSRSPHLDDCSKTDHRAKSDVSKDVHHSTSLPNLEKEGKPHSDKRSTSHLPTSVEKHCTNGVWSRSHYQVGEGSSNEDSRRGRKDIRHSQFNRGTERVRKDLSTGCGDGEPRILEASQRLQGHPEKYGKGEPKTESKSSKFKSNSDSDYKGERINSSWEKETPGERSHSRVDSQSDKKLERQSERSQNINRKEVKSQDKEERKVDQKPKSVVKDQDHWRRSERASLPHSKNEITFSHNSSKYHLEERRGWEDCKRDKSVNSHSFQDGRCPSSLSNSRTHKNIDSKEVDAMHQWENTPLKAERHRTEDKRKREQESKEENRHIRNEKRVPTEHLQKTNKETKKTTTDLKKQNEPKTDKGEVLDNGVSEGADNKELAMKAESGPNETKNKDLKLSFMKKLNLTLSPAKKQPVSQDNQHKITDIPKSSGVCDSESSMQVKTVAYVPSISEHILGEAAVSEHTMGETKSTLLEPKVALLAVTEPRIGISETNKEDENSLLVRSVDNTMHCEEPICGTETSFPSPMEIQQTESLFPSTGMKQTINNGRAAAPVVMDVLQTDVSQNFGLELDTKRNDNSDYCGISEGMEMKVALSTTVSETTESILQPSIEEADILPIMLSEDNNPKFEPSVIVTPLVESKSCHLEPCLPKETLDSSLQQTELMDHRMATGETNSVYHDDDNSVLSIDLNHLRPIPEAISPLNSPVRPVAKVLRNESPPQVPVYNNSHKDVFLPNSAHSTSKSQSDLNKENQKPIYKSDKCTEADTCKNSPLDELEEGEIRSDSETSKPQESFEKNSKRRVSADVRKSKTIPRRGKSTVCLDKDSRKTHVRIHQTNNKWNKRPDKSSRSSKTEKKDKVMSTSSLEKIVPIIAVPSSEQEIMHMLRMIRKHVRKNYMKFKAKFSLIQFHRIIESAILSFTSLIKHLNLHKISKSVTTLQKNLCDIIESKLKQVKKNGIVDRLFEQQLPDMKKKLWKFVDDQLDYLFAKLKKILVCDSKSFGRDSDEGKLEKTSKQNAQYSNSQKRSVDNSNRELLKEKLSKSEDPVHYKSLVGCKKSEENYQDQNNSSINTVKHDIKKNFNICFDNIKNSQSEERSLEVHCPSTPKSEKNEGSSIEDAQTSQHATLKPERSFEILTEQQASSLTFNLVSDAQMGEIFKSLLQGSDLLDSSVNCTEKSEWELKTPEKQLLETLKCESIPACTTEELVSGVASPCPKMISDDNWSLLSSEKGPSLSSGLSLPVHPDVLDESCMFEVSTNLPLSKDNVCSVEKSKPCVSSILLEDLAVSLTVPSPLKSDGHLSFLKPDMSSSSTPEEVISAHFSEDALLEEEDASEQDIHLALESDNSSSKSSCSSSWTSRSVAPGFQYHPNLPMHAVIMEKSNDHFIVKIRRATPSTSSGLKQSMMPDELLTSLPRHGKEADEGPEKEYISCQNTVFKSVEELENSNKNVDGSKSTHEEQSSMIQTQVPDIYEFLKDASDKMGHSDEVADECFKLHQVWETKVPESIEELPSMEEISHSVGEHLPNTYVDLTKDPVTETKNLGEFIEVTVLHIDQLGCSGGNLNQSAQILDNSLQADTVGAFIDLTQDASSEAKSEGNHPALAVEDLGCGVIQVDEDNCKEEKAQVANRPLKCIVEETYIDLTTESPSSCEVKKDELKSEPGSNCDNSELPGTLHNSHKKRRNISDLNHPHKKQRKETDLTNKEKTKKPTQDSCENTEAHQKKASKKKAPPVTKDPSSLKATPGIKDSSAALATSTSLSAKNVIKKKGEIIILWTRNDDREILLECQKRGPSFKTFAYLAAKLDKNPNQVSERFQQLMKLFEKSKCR
UniProt Q9H0W5: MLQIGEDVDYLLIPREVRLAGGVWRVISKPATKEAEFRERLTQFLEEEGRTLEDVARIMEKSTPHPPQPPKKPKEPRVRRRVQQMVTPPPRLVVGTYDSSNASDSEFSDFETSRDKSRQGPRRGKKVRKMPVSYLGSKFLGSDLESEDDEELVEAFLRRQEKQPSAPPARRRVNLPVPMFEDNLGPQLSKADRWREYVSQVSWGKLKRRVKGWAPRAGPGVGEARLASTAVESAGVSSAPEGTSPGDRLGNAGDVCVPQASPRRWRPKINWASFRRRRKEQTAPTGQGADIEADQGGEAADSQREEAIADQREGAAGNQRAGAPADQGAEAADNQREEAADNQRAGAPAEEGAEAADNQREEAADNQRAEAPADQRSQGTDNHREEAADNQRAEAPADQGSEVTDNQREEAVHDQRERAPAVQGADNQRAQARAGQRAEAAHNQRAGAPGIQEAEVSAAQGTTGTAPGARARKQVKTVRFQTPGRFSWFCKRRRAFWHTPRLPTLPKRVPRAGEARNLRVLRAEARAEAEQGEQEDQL
UniProt Q6YHK3: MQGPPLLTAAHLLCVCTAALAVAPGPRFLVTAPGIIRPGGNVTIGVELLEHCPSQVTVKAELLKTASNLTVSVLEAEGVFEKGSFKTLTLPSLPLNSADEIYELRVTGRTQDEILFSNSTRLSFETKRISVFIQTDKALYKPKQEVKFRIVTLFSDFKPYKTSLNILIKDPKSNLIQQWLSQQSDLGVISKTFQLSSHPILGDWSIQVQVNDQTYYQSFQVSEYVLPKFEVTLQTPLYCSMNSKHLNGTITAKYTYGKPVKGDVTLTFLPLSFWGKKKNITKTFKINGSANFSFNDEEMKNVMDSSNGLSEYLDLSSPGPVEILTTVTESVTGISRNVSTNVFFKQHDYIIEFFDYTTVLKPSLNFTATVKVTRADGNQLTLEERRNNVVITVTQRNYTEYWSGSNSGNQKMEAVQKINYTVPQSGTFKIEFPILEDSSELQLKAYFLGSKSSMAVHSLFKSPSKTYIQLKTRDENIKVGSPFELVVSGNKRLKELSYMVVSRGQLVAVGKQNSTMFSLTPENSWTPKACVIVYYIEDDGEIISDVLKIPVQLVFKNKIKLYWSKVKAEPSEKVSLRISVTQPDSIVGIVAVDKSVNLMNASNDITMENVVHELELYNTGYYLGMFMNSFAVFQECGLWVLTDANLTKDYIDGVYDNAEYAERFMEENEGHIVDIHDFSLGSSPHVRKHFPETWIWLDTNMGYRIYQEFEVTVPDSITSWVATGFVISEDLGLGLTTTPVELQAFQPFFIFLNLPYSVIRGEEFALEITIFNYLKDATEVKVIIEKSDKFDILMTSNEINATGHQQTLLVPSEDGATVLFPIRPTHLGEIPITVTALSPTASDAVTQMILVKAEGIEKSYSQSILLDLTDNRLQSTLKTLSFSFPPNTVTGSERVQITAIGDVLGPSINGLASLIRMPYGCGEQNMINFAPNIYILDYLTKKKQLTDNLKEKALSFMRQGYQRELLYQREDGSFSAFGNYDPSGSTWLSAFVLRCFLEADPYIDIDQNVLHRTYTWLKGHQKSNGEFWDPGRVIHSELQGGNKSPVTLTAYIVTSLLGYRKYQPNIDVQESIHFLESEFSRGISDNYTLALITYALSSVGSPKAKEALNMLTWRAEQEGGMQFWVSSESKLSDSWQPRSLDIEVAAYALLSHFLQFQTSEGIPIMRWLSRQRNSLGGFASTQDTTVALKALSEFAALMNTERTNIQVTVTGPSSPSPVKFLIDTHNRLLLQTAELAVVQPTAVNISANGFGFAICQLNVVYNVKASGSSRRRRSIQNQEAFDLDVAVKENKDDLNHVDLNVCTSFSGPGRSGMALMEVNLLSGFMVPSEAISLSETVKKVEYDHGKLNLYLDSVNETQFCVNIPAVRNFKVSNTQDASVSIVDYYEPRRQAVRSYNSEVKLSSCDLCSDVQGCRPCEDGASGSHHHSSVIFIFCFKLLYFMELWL
UniProt Q96A19: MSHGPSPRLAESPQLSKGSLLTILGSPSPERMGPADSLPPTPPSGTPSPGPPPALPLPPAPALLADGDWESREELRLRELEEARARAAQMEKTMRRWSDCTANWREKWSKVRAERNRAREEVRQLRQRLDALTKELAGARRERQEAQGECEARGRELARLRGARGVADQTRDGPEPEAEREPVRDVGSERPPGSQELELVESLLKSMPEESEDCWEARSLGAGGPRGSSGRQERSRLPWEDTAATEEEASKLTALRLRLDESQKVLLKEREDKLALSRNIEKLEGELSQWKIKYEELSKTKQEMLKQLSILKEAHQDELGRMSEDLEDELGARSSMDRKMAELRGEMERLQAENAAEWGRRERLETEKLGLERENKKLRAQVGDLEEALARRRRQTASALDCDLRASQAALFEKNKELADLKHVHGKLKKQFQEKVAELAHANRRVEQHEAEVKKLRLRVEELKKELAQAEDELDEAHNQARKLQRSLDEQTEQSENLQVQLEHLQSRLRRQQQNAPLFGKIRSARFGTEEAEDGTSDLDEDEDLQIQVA
UniProt Q9P0B6: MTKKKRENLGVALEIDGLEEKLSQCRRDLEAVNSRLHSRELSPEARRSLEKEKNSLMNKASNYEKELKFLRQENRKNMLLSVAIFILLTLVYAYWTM
UniProt Q14790: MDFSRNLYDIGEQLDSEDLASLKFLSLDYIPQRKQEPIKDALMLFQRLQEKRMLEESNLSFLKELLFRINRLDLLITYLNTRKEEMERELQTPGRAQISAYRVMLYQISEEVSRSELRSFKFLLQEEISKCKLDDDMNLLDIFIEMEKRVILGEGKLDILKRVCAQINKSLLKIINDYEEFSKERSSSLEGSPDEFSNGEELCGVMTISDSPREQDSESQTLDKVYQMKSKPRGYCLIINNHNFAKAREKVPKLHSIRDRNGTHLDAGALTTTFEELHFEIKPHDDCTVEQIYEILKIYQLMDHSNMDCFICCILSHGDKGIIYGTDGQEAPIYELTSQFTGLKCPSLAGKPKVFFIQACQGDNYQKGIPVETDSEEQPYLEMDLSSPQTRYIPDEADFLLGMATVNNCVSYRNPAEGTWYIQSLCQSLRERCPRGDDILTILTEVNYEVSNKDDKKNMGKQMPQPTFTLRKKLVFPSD
UniProt Q96EE4: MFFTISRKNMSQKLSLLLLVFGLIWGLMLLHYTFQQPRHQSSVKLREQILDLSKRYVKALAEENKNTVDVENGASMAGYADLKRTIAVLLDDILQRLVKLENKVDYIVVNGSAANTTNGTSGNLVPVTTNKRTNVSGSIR

Columns and labels:
Assay in all cases: log2 fold change, soluble protein after heating vs DMSO (PISA); higher = thermal stabilisation; K562 lysate, 10 uM; active = over 0.2 and 3.5 SD of the protein, either way, in both replicates (recomputed)
lapatinib = compound: CS(=O)(=O)CCNCc1ccc(-c2ccc3ncnc(Nc4ccc(OCc5cccc(F)c5)c(Cl)c4)c3c2)o1 [lapatinib]
Procedure, shortened: (§1)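 Following dounce homogenisation of K562 pellets in PBS pH 7.4 with 1 mM MgCl2, crude extract at 1 mg/mL protein was incubated for 30 min with 10 μM compound. Aliquots were then heated for 3 min over 48°C-58°C and pooled, NP-40 was added to 0.5% at 4°C, and soluble protein was recovered as the supernatant at 21,000xg for 90 min. Channel-sum-equalised TMTpro 16plex LC-MS/MS quantified this protein. Each value, from duplicates, is a log-two fold change in thermal stability relative to solvent controls.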

pictilisib = compound: CS(=O)(=O)N1CCN(Cc2cc3nc(-c4cccc5[nH]ncc45)nc(N4CCOCC4)c3s2)CC1 [pictilisib]
Procedure, shortened: as §1

crizotinib = compound: C[C@@H](Oc1cc(-c2cnn(C3CCNCC3)c2)cnc1N)c1c(Cl)ccc(F)c1Cl [crizotinib]
Procedure, shortened: as §1

[1] = compound: C[C@H](C1=CC=C(C=C1)C(=O)NC2=C3C=CNC3=NC=C2)N
Procedure, shortened: as §1

duvelisib = compound: C[C@H](Nc1ncnc2nc[nH]c12)c1cc2cccc(Cl)c2c(=O)n1-c1ccccc1 [duvelisib]
Procedure, shortened: as §1

gandotinib = compound: Cc1cc(Nc2cc(CN3CCOCC3)c3nc(C)c(Cc4ccc(Cl)cc4F)n3n2)n[nH]1 [gandotinib]
Procedure, shortened: as §1

tozasertib = compound: Cc1cc(Nc2cc(N3CCN(C)CC3)nc(Sc3ccc(NC(=O)C4CC4)cc3)n2)n[nH]1 [tozasertib]
Procedure, shortened: as §1

doramapimod = compound: Cc1ccc(-n2nc(C(C)(C)C)cc2NC(=O)Nc2ccc(OCCN3CCOCC3)c3ccccc23)cc1 [doramapimod]
Procedure, shortened: as §1

bafetinib = compound: Cc1ccc(NC(=O)c2ccc(CN3CC[C@H](N(C)C)C3)c(C(F)(F)F)c2)cc1Nc1nccc(-c2cncnc2)n1 [bafetinib]
Procedure, shortened: as §1

[2] = compound: Cc1cccc(CC(=O)N2CCc3c2ccc(-c2cn(C)c4ncnc(N)c24)c3F)n1
Procedure, shortened: as §1

Measured: log2 fold change

CASP6 (UniProt P55212)
inactive: lapatinib 0.024 | pictilisib -0.004 | crizotinib 0.009 | [1] 0.195 | duvelisib 0.003 | gandotinib -0.02 | tozasertib 0.022 | doramapimod 0.013 | bafetinib 0.054 | [2] -0.038

CCDC175 (UniProt P0C221)
inactive: lapatinib -0.177 | [1] -0.261 | gandotinib 0.256 | tozasertib -0.077 | [2] 0.329

CBWD5 (UniProt Q5RIA9)
inactive: lapatinib 0.025 | pictilisib -0.022 | crizotinib -0.02 | [1] -0.038 | duvelisib 0.022 | gandotinib -0.041 | tozasertib 0.003 | doramapimod -0.015 | bafetinib 0.007 | [2] 0.098

CBFA2T2 isoform 4 (UniProt O43439)
inactive: lapatinib 0.538 | crizotinib -0.041 | [1] -0.084 | duvelisib -0.386 | gandotinib 0.064 | tozasertib -0.169 | doramapimod 0.003 | [2] 0.222

CCNT2 (UniProt O60583)
inactive: lapatinib 0.094 | pictilisib -0.04 | crizotinib 0.066 | duvelisib -0.078 | tozasertib 0.055 | doramapimod -0.038 | bafetinib -0.011

CD226 (UniProt Q15762)
inactive: lapatinib -0.134 | pictilisib 0.008 | bafetinib 0.017

CCT6B (UniProt Q92526)
inactive: lapatinib -0.058 | pictilisib -0.058 | [1] -0.054 | gandotinib -0.087 | bafetinib 0.033 | [2] -0.022

CASK (UniProt O14936)
inactive: lapatinib -0.033 | pictilisib -0.046 | [1] 0.052 | duvelisib 0.174 | gandotinib -0.021 | tozasertib 0.073 | doramapimod 0.061 | bafetinib -0.074 | [2] -0.141

CCM2 isoform 2 (UniProt Q9BSQ5)
inactive: lapatinib -0.014 | pictilisib 0.017 | crizotinib 0.014 | [1] -0.068 | duvelisib 0.002 | gandotinib 0.042 | tozasertib 0.001 | doramapimod 0.055 | bafetinib -0.067 | [2] 0.027

Reprinted at random: 3 entries already listed.
CCM2 isoform 2 (UniProt Q9BSQ5)
inactive: lapatinib -0.014 | pictilisib 0.017 | crizotinib 0.014 | [1] -0.068 | duvelisib 0.002 | gandotinib 0.042 | tozasertib 0.001 | doramapimod 0.055 | bafetinib -0.067 | [2] 0.027

CCNT2 (UniProt O60583)
inactive: lapatinib 0.094 | pictilisib -0.04 | crizotinib 0.066 | duvelisib -0.078 | tozasertib 0.055 | doramapimod -0.038 | bafetinib -0.011

CD226 (UniProt Q15762)
inactive: lapatinib -0.134 | pictilisib 0.008 | bafetinib 0.017

Later entries:

CCT6B isoform 3 (UniProt Q92526)
inactive: lapatinib -0.114 | duvelisib 0.092

CCT3 (UniProt E9PM09)
inactive: lapatinib -0.04 | pictilisib -0.157 | duvelisib 0.016 | tozasertib 0.375 | bafetinib -0.23

CASP8AP2 (UniProt Q9UKL3)
inactive: pictilisib -0.016 | crizotinib 0.03 | [1] -0.017 | gandotinib 0.013 | tozasertib -0.024 | doramapimod 0.049 | bafetinib 0 | [2] -0.018

CD69 (UniProt Q07108)
inactive: crizotinib -0.037 | doramapimod 0.099

CCDC8 (UniProt Q9H0W5)
inactive: duvelisib 0.268

CCDC88A isoform 2 (UniProt Q3V6T2)
inactive: [1] -0.202 | gandotinib -0.025 | [2] 0.041

CCDC152 (UniProt Q4G0S7)
inactive: crizotinib -0.031 | duvelisib 0.034 | doramapimod -0.103

CD164 (UniProt Q04900)
inactive: crizotinib -0.133 | doramapimod -0.106

CBX8 (UniProt Q9HC52)
inactive: crizotinib -0.184 | tozasertib -0.122 | doramapimod 0.037

CCDC18 (UniProt Q5T9S5)
inactive: crizotinib -0.17 | [1] -0.209 | duvelisib 0.047 | gandotinib 0.297 | tozasertib 0.139 | doramapimod 0.021 | [2] 0.299

CCT8 (UniProt H7C4C8)
inactive: crizotinib -0.084 | doramapimod 0.192

CCRL2 isoform 2 (UniProt O00421)
inactive: pictilisib -0.041 | bafetinib -0.105

CD109 (UniProt Q6YHK3)
inactive: [1] 0.322 | gandotinib 0.331 | [2] 0.143

CD44 (UniProt P16070)
inactive: [1] 0.032 | gandotinib -0.044 | tozasertib 0.364 | [2] -0.046

CCDC130 (UniProt P13994)
inactive: pictilisib -0.003 | crizotinib -0.689 | tozasertib 0.055 | doramapimod 0.617 | bafetinib -0.119

CCDC102A (UniProt Q96A19)
inactive: pictilisib -0.082 | crizotinib -0.122 | tozasertib -0.034 | doramapimod 0.085 | bafetinib -0.165

CASS4 (UniProt Q9NQ75)
inactive: crizotinib -0.048 | [1] -0.112 | duvelisib -0.047 | gandotinib 0.053 | tozasertib 0.004 | doramapimod -0.173 | [2] -0.073

CASTOR1 (UniProt Q8WTX7)
inactive: crizotinib 0.066 | doramapimod -0.102

CCDC144A (UniProt A2RUR9)
inactive: pictilisib -0.084 | crizotinib 0.023 | duvelisib -0.141 | tozasertib -0.093 | doramapimod 0.134 | bafetinib -0.287

CCHCR1 isoform 2 (UniProt Q8TD31)
inactive: pictilisib -0.022 | crizotinib -0.055 | [1] -0.005 | gandotinib -0.068 | tozasertib -0.003 | doramapimod -0.086 | bafetinib -0.149 | [2] 0.072

CD276 (UniProt Q5ZPR3)
inactive: [1] -0.08 | gandotinib -0.338 | [2] -0.086

CCP110 (UniProt O43303)
inactive: pictilisib -0.085 | crizotinib -0.006 | duvelisib 0.084 | tozasertib -0.009 | doramapimod 0.009 | bafetinib -0.053

CD40 (UniProt P25942)
inactive: [1] 0.102 | gandotinib 0.253 | [2] 0.043

CBX3 (UniProt B8ZZ43)
inactive: crizotinib 0.152 | [1] -0.025 | gandotinib 0.18 | doramapimod -0.011 | [2] -0.197

CCDC167 (UniProt Q9P0B6)
inactive: pictilisib 0.113 | crizotinib -0.024 | doramapimod -0.01 | bafetinib 0.007

CASC1 (UniProt Q6TDU7)
inactive: pictilisib -0.06 | [1] -0.175 | gandotinib 0.058 | bafetinib 0.953 | [2] 0.095

CD79B isoform 3 (UniProt P40259)
inactive: duvelisib 0.3

CD46 (UniProt P15529)
inactive: crizotinib 0.037 | doramapimod -0.038

CCND1 (UniProt P24385)
inactive: crizotinib -0.22 | [1] -0.215 | gandotinib 0.119 | doramapimod 0.062 | [2] -0.025

CASP8 isoform 4 (UniProt Q14790)
inactive: pictilisib -0.099 | duvelisib -0.054 | bafetinib 0.01

CCDC136 isoform 4 (UniProt Q96JN2)
inactive: crizotinib -0.101 | [1] -0.065 | duvelisib 0.056 | gandotinib -0.157 | tozasertib -0.029 | doramapimod 0.123 | [2] 0.099

CCDC126 (UniProt Q96EE4)
inactive: crizotinib -0.078 | doramapimod 0.156

CD68 (UniProt P34810)
inactive: crizotinib -0.076 | [1] -0.287 | gandotinib -0.022 | tozasertib 0.057 | doramapimod -0.229 | [2] 0.08

CASP10 isoform 2 (UniProt Q92851)
inactive: duvelisib -0.02 | tozasertib 0.004

CCDC66 (UniProt A2RUB6)
inactive: tozasertib -0.022

CCDC71L (UniProt Q8N9Z2)
inactive: [1] -0.149 | duvelisib -0.033 | gandotinib 0.042 | [2] 0.121
